Drawing on PMC5291280, this text covers binding for two molecules.

The chains behind the UniProt entries cited, without tags or fusion partners.
UniProt P26196: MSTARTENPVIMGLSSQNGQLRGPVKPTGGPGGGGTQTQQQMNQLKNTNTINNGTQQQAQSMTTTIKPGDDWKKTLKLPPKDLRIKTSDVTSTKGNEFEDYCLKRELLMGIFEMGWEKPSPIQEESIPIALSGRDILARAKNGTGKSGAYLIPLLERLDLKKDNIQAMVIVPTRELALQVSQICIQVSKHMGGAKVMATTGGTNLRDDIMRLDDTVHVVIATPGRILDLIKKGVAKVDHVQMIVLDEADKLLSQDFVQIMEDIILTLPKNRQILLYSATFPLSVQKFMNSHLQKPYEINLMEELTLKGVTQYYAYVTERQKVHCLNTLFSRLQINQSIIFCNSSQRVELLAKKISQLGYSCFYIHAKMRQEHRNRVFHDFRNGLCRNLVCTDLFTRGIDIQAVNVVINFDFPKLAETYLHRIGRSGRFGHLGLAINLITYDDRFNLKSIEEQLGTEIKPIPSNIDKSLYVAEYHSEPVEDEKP
UniProt Q8IZH2: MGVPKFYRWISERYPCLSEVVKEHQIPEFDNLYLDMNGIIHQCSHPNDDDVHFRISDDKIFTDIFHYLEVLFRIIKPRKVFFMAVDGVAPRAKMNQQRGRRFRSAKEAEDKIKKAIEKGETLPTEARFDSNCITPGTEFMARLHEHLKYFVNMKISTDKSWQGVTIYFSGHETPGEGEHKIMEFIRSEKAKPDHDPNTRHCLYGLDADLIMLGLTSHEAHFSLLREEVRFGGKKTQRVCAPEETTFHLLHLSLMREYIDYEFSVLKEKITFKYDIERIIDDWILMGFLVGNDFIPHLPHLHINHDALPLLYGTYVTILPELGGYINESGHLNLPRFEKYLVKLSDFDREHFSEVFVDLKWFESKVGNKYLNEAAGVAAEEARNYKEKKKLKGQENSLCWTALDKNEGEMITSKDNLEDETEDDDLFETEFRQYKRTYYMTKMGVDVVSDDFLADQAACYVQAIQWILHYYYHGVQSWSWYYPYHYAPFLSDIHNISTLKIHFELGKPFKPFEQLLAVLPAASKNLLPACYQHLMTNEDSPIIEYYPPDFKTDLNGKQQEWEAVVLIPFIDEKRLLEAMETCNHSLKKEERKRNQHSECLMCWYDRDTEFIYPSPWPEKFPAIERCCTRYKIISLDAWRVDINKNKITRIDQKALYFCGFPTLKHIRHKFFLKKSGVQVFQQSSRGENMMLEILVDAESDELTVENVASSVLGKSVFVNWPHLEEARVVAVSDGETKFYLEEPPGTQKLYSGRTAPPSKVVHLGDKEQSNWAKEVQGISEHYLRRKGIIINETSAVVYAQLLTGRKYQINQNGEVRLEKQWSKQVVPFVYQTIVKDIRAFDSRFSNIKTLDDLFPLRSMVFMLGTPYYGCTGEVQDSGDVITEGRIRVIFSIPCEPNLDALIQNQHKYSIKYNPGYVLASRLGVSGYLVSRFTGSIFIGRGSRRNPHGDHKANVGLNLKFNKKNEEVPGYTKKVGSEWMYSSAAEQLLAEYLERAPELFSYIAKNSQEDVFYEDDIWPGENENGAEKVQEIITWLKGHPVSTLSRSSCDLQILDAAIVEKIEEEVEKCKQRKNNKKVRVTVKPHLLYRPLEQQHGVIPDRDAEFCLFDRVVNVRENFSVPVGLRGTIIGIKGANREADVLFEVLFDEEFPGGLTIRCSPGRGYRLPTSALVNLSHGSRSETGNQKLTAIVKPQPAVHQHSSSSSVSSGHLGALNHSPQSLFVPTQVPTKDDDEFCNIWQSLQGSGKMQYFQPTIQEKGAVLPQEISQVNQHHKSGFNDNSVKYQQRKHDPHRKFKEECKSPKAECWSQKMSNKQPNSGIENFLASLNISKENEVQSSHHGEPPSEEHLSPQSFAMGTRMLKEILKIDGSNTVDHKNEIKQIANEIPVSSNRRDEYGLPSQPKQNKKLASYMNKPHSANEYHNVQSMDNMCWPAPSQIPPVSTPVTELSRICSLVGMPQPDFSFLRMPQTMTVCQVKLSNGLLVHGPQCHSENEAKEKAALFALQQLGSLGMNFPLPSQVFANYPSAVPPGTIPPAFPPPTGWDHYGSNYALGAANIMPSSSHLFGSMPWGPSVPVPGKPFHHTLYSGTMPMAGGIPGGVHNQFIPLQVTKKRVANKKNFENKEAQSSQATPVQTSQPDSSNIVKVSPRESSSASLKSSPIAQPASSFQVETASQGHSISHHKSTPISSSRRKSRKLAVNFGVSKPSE

These are yes or no findings as the source states them, for the method shown. Binding seen in cells or lysates may run through a third protein. Some results given as binding are weak or reduced against the parent protein; the word gives no strength. For some assays here: Tags and fused reporters may be left off the sequences shown.

Assay [1] concerns the target T1, FLAG-4E-T (4E-Transporter, full length) (human) (UniProt Q9NRA8).
T1 sequence: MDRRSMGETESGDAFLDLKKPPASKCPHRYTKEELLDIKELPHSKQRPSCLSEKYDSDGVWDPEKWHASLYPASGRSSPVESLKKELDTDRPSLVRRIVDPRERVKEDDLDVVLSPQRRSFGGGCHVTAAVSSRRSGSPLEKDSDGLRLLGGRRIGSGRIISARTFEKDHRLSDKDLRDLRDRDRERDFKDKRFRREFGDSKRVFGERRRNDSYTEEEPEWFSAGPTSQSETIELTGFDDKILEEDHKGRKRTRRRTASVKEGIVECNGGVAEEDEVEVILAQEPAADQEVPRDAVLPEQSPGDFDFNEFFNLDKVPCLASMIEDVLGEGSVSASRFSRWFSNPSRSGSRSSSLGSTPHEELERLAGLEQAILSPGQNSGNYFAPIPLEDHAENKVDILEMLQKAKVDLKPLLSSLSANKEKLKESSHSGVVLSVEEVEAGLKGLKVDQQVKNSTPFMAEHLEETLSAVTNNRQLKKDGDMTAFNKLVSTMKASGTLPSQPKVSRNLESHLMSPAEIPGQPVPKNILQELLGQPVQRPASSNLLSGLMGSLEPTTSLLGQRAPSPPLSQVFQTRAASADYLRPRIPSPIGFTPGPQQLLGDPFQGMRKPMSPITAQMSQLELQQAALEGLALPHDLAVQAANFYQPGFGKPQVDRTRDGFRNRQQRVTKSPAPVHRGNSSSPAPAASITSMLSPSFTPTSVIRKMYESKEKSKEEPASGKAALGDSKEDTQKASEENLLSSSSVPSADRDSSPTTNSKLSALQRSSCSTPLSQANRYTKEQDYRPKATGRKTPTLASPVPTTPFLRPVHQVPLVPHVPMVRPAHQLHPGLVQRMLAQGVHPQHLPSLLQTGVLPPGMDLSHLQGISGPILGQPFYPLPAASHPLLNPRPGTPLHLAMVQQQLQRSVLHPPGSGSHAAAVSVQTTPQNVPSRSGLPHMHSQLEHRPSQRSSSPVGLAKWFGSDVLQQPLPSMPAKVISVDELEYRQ
As to the kind of experiment: co-IP; anti-FLAG M2 beads on lysates of transfected HEK293T cells, eluted with SDS loading buffer, western blot; lysates with or without RNase A (40 μg/ml); in some panels cells also given siRNA against β-globin, DDX6, UNR or unrip, or co-transfected with HA-DDX6. Background: Immunoblotting shows a protein as a band on a membrane.

A further assay concerns the target T2, FLAG-UNR (human) (UniProt O75534).
T2 sequence: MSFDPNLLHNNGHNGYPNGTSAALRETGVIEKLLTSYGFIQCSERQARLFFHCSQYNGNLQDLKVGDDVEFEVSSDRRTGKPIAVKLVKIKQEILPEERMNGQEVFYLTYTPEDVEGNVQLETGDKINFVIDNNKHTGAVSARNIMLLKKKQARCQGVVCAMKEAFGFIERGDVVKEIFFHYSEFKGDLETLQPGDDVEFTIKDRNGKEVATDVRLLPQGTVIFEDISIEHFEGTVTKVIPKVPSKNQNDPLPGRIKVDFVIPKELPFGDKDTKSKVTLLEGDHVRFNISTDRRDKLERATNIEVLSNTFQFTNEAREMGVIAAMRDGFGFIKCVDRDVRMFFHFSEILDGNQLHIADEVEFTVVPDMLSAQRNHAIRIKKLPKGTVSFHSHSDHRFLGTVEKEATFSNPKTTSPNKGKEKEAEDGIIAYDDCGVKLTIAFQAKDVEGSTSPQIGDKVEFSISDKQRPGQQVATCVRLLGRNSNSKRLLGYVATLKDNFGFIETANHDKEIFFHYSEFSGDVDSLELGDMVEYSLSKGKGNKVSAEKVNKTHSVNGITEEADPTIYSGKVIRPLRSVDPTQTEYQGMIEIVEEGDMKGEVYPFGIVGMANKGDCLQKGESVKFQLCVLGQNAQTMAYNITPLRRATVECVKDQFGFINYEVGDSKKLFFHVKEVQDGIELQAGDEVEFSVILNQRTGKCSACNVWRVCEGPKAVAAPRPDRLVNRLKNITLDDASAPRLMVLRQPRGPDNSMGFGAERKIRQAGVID
The description is as above.

Assay [2] deals with T3, FLAG-UNRΔC (UNR1-744) (human) (UniProt O75534).
T3 sequence: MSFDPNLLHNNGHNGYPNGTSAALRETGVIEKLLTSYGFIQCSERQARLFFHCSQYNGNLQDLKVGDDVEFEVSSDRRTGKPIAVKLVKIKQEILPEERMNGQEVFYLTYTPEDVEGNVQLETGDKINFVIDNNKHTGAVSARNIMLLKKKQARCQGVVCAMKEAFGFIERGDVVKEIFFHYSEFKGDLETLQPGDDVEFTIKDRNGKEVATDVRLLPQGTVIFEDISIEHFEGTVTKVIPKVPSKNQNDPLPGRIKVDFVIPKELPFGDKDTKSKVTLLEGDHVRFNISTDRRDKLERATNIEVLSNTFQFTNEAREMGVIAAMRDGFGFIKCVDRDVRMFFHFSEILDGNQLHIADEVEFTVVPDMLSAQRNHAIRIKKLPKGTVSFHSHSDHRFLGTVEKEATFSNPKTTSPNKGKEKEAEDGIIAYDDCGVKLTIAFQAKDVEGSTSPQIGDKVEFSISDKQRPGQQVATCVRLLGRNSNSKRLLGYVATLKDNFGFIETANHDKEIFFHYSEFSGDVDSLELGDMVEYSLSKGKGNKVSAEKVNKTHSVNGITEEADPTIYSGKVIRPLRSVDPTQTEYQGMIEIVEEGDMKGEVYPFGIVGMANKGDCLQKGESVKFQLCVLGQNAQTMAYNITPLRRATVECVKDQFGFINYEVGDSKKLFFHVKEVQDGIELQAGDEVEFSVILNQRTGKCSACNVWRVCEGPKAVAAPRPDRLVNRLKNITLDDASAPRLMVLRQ
Described as above.

In the next assay the target is FLAG-DDX6 (human) (UniProt P26196). The description is as above.
Assay [3] concerns the target T4, UNR (CSDE1), endogenous (human (endogenous in HEK293T)) (UniProt O75534).
T4 sequence: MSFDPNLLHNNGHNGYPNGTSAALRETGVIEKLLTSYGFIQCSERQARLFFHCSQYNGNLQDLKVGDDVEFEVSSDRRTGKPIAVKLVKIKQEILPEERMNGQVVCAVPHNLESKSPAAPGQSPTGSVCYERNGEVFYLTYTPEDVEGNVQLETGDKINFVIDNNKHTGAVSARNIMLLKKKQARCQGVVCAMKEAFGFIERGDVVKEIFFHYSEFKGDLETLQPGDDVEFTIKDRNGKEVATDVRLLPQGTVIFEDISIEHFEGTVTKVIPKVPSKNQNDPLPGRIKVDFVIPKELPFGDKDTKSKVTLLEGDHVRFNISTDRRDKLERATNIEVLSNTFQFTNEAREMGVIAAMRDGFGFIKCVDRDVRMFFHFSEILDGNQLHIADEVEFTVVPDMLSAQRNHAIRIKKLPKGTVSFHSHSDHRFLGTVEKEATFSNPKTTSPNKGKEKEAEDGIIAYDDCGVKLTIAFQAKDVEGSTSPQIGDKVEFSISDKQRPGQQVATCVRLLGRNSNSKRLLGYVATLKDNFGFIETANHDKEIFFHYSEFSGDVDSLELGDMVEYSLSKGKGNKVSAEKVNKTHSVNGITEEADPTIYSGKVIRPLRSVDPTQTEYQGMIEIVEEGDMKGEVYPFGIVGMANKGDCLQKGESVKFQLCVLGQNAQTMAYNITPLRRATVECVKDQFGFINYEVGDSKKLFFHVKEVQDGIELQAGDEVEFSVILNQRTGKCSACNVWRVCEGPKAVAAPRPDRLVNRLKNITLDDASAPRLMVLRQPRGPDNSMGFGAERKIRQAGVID
As to the kind of experiment: co-IP; endogenous proteins, immunoprecipitation with 4E-T and UNR antibodies (Supplementary Figure S1); RNA-independent.

Consider “XRN1 exonuclease, endogenous (from UniProt Q8IZH2 1-1706)”, for which, in assay [1], the binding entry is on record as “no binding”.

B1: 4E-T, endogenous (protein, UniProt Q9NRA8 1-985)
chain: MDRRSMGETESGDAFLDLKKPPASKCPHRYTKEELLDIKELPHSKQRPSCLSEKYDSDGVWDPEKWHASLYPASGRSSPVESLKKELDTDRPSLVRRIVDPRERVKEDDLDVVLSPQRRSFGGGCHVTAAVSSRRSGSPLEKDSDGLRLLGGRRIGSGRIISARTFEKDHRLSDKDLRDLRDRDRERDFKDKRFRREFGDSKRVFGERRRNDSYTEEEPEWFSAGPTSQSETIELTGFDDKILEEDHKGRKRTRRRTASVKEGIVECNGGVAEEDEVEVILAQEPAADQEVPRDAVLPEQSPGDFDFNEFFNLDKVPCLASMIEDVLGEGSVSASRFSRWFSNPSRSGSRSSSLGSTPHEELERLAGLEQAILSPGQNSGNYFAPIPLEDHAENKVDILEMLQKAKVDLKPLLSSLSANKEKLKESSHSGVVLSVEEVEAGLKGLKVDQQVKNSTPFMAEHLEETLSAVTNNRQLKKDGDMTAFNKLVSTMKASGTLPSQPKVSRNLESHLMSPAEIPGQPVPKNILQELLGQPVQRPASSNLLSGLMGSLEPTTSLLGQRAPSPPLSQVFQTRAASADYLRPRIPSPIGFTPGPQQLLGDPFQGMRKPMSPITAQMSQLELQQAALEGLALPHDLAVQAANFYQPGFGKPQVDRTRDGFRNRQQRVTKSPAPVHRGNSSSPAPAASITSMLSPSFTPTSVIRKMYESKEKSKEEPASGKAALGDSKEDTQKASEENLLSSSSVPSADRDSSPTTNSKLSALQRSSCSTPLSQANRYTKEQDYRPKATGRKTPTLASPVPTTPFLRPVHQVPLVPHVPMVRPAHQLHPGLVQRMLAQGVHPQHLPSLLQTGVLPPGMDLSHLQGISGPILGQPFYPLPAASHPLLNPRPGTPLHLAMVQQQLQRSVLHPPGSGSHAAAVSVQTTPQNVPSRSGLPHMHSQLEHRPSQRSSSPVGLAKWFGSDVLQQPLPSMPAKVISVDELEYRQ
For the molecule B1, the binding result (with FLAG-UNR (human); in assay [2]; in the assay with FLAG-DDX6 (human); in assay [3]) was “binds” each time.
